Laboratory results taken from patent US20240345008A1 (Eth Zurich, priority 2021, published 2024).
Positions of bridges follow the written chain, without caps; N, C: chain ends. Non-standard residues stand in square brackets, D forms with d. Residues, ends and D or L forms follow the SMILES beside them. hArg = N=C(N)NCCCC[CH](N)C(=O)O; Mpa = O=C(O)CCS

Experiment: photo-CIDNP polarizability of ligands: signal-to-noise enhancement (SNE), irradiated vs non-irradiated 1H NMR
Assay type: physicochemical
Conditions: photosensitizer AT12 25 μM, ligand 100 μM, 532 nm, 2 s irradiation, 600 MHz, phosphate buffer pH 7.0

With `CCc1c(OC)sc(OC)c1CCNCc1ccccc1OC` [2-(2,5-Dimethoxy-4-ethylthiophenyl)-N-[(2-methoxyphenyl)methyl]ethanamine] as the compound, how does the “signal-to-noise enhancement (SNE)” value read?
The value was 8.

With `CCSc1cc(OC)c(CCN)cc1OC.Cl` [2-[2,5-Dimethoxy-4-(ethylthio)phenyl]ethanamine•hydrochloride] as the compound, how does the “signal-to-noise enhancement (SNE)” value read?
Its value is 7.

For `NC(=O)C1CSSCCC(=O)NC(CCCCN=C(N)N)C(=O)NCC(=O)NC(CC(=O)O)C(=O)NC(Cc2c[nH]c3ccccc23)C(=O)N2CCCC2C(=O)N1` (stereo not shown) [2-[20-carbamoyl-12-[4-(diaminomethylideneamino)butyl]-3-(1H-indol-3-ylmethyl)-2,5,8,11,14,22-hexaoxo-17,18-dithia-1,4,7,10,13,21-hexazabicyclo[21.3.0]hexacosan-6-yl]acetic acid] ([Mpa][hArg]GDWPC-NH2; disulfide 1-7; configuration not given here), which “signal-to-noise enhancement (SNE)” value is on record?
Its value is 56.

With `CN(C)CCc1c[nH]c2cccc(O)c12` [3-[2-(dimethylamino)ethyl]-1H-indol-4-ol] as the compound, how does the “signal-to-noise enhancement (SNE)” value read?
Its value is 61.

With `COc1ccc2c3c([nH]c2c1)C(C)=NCC3` [7-methoxy-1-methyl-3H,4H,9H-pyrido[3,4-b]indole] as the compound, how does the “signal-to-noise enhancement (SNE)” value read?
Its value is 42.

For `c1ccc(CCNc2nc3ccccc3[nH]2)cc1` [N-(2-phenylethyl)-1H-benzimidazol-2-amine], which “signal-to-noise enhancement (SNE)” value is on record?
The value was 6.

For `FC(F)(F)c1cccc(N2CCNCC2)c1` [N-(3-Trifluoromethylphenyl)-piperazine], which “signal-to-noise enhancement (SNE)” value is on record?
Its value is 10.

Which “signal-to-noise enhancement (SNE)” value does the source give for `COc1ccc2[nH]cc(CCNC(C)=O)c2c1` [N-[2-(5-methoxy-1H-indol-3-yl)ethyl]acetamide] here?
The value was 45.

With `CN(C)CCc1c[nH]c2ccccc12` [[2-(1H-indol-3-yl)ethyl]dimethylamine] as the compound, how does the “signal-to-noise enhancement (SNE)” value read?
The value was 14.

Same assay, conditions: photosensitizer FMN 25 μM, ligand 100 μM, 450 nm, 2 s irradiation, 600 MHz, phosphate buffer pH 7.0

With `CC(N)Cc1ccc2c(c1)OCO2` (stereo not shown) [1-(1,3-Benzodioxol-5-yl)propan-2-amine] as the compound, how does the “signal-to-noise enhancement (SNE)” value read?
Its value is 29.

With `CN(C)CCc1c[nH]c2cccc(O)c12` [3-[2-(dimethylamino)ethyl]-1H-indol-4-ol] as the compound, how does the “signal-to-noise enhancement (SNE)” value read?
Its value is 17.

Which “signal-to-noise enhancement (SNE)” value does the source give for `FC(F)(F)c1cccc(N2CCNCC2)c1` [N-(3-Trifluoromethylphenyl)-piperazine] here?
The value was 90.

For `CN(C)CCc1c[nH]c2ccccc12` [[2-(1H-indol-3-yl)ethyl]dimethylamine], which “signal-to-noise enhancement (SNE)” value is on record?
Its value is 11.

Same assay, conditions: photosensitizer fluorescein 25 μM, ligand 100 μM, 450 nm, 2 s irradiation, 600 MHz, phosphate buffer pH 7.0

Which “signal-to-noise enhancement (SNE)” value does the source give for `CCn1cc(C(=O)O)c(=O)c2cc(F)c(N3CCNCC3)cc21` [1-ethyl-6-fluoro-4-oxo-7-(piperazin-1-yl)-1,4-dihydroquinoline-3-carboxylic acid] here?
Its value is 10.

With `NNc1nncc2ccccc12` [1-hydrazinylphthalazine] as the compound, how does the “signal-to-noise enhancement (SNE)” value read?
Its value is 21.

Which “signal-to-noise enhancement (SNE)” value does the source give for `O=C1CCN(c2ccccc2)N1` [1-phenylpyrazolidin-3-one] here?
Its value is 33.

For `Cc1ccc(Sc2ccccc2N2CCNCC2)c(C)c1` [1-{2-[(2,4-dimethylphenyl)sulfanyl]phenyl}piperazine], which “signal-to-noise enhancement (SNE)” value is on record?
Its value is 8.

With `c1ccc2[nH]c(-c3cscn3)nc2c1` [2-(1,3-thiazol-4-yl)-1H-1,3-benzodiazole] as the compound, how does the “signal-to-noise enhancement (SNE)” value read?
Its value is 20.

Which “signal-to-noise enhancement (SNE)” value does the source give for `O=C1NCCc2[nH]c(-c3ccncc3)cc21` [2-(pyridin-4-yl)-1H,4H,5H,6H,7H-pyrrolo[3,2-c]pyridin-4-one] here?
Its value is 11.

Which “signal-to-noise enhancement (SNE)” value does the source give for `CC(C)(Cc1nc(-c2ccc(O)cn2)no1)C(=O)NC1=C(C(=O)O)CCCC1` [2-{3-[3-(5-hydroxypyridin-2-yl)-1,2,4-oxadiazol-5-yl]-2,2-dimethylpropanamido}cyclohex-1-ene-1-carboxylic acid] here?
The value was 15.

With `O=C(O)c1cccnc1Nc1cccc(C(F)(F)F)c1` [2-{[3-(trifluoromethyl)phenyl]amino}pyridine-3-carboxylic acid] as the compound, how does the “signal-to-noise enhancement (SNE)” value read?
The value was 42.

With `CC(C)N(CCCNC(=O)Nc1ccc(C(C)(C)C)cc1)C[C@H]1O[C@@H](n2ccc3c(N)ncnc32)[C@H](O)[C@@H]1O` [3-[3-{{[(2R,3S,4R,5R)-5-{4-amino-7H-pyrrolo[2,3-d]pyrimidin-7-yl}-3,4-dihydroxyoxolan-2-yl]methyl}(propan-2-yl)amino)propyl]-1-(4-tert-butylphenyl)urea] as the compound, how does the “signal-to-noise enhancement (SNE)” value read?
Its value is 45.

With `CC1(N)CCN(c2cccnc2NC(=O)c2nc(-c3ncccc3C(F)(F)F)cnc2N)CC1` [3-amino-N-[3-(4-amino-4-methylpiperidin-1-yl)pyridin-2-yl]-6-[3-(trifluoromethyl)pyridin-2-yl]pyrazine-2-carboxamide] as the compound, how does the “signal-to-noise enhancement (SNE)” value read?
Its value is 12.

For `Cc1c(Cl)cccc1S(=O)(=O)Nc1nc(CC(=O)N2CCN(C)CC2)cs1` [3-chloro-2-methyl-N-{4-[2-(4-methylpiperazin-1-yl)-2-oxoethyl]-1,3-thiazol-2-yl}benzene-1-sulfonamide], which “signal-to-noise enhancement (SNE)” value is on record?
The value was 14.

With `O=C(Nc1c[nH]nc1-c1nc2ccc(CN3CCOCC3)cc2[nH]1)NC1CC1` [3-cyclopropyl-1-(3-{6-[(morpholin-4-yl)methyl]-1H-1,3-benzodiazol-2-yl}-1H-pyrazol-4-yl)urea] as the compound, how does the “signal-to-noise enhancement (SNE)” value read?
Its value is 15.

Which “signal-to-noise enhancement (SNE)” value does the source give for `CC1=NN(c2ccccc2)C(=O)C1` [3-methyl-1-phenyl-4,5-dihydro-1H-pyrazol-5-one] here?
The value was 22.

Which “signal-to-noise enhancement (SNE)” value does the source give for `Cc1cc(C)nc(N)c1` [4,6-dimethylpyridin-2-amine] here?
The value was 7.

With `Cc1ccc(-c2csc(N)n2)s1` [4-(5-methylthiophen-2-yl)-1,3-thiazol-2-amine] as the compound, how does the “signal-to-noise enhancement (SNE)” value read?
Its value is 19.

Which “signal-to-noise enhancement (SNE)” value does the source give for `Nc1nccc(/C=C/c2ccccc2)n1` [4-[(1E)-2-phenylethenyl]pyrimidin-2-amine] here?
The value was 12.

Which “signal-to-noise enhancement (SNE)” value does the source give for `Cc1ccnc(NS(=O)(=O)c2ccc(N)cc2)n1` [4-amino-N-(4-methylpyrimidin-2-yl)benzene-1-sulfonamide] here?
The value was 8.

With `O=C1NCCSc2c1sc1ccc(O)cc21` [4-hydroxy-8,14-dithia-11-azatricyclo[7.5.0.0^2,^7]tetradeca-1(9),2,4,6-tetraen-10-one] as the compound, how does the “signal-to-noise enhancement (SNE)” value read?
Its value is 10.

Which “signal-to-noise enhancement (SNE)” value does the source give for `O=C(O)c1cc2occc2[nH]1` [4H-furo[3,2-b]pyrrole-5-carboxylic acid] here?
The value was 44.

With `O=C(O)c1cc2sccc2[nH]1` [4H-thieno[3,2-b]pyrrole-5-carboxylic acid] as the compound, how does the “signal-to-noise enhancement (SNE)” value read?
The value was 103.

Which “signal-to-noise enhancement (SNE)” value does the source give for `O=c1[nH]cc(N2CCCCC2)c(=O)[nH]1` [5-(piperidin-1-yl)-1,2,3,4-tetrahydropyrimidine-2,4-dione] here?
The value was 29.

For `Clc1ccc2nsnc2c1NC1=NCCN1` [5-chloro-N-(4,5-dihydro-1H-imidazol-2-yl)-2,1,3-benzothiadiazol-4-amine], which “signal-to-noise enhancement (SNE)” value is on record?
Its value is 7.

Which “signal-to-noise enhancement (SNE)” value does the source give for `O=C1CCc2cc(OCCCCc3nnnn3C3CCCCC3)ccc2N1` [6-[4-(1-cyclohexyl-1H-1,2,3,4-tetrazol-5-yl)butoxy]-1,2,3,4-tetrahydroquinolin-2-one] here?
Its value is 15.

Which “signal-to-noise enhancement (SNE)” value does the source give for `O=C1C(Cl)=C(NCCN2CCOCC2)C(=O)c2ncccc21` [6-chloro-7-{[2-(morpholin-4-yl)ethyl]amino}-5,8-dihydroquinoline-5,8-dione] here?
Its value is 7.

For `CN(C)C(=O)c1cc2cnc(Nc3ccc(N4CCNCC4)cn3)nc2n1C1CCCC1` [7-cyclopentyl-N,N-dimethyl-2-{[5-(piperazin-1-yl)pyridin-2-yl]amino}-7H-pyrrolo[2,3-d]pyrimidine-6-carboxamide], which “signal-to-noise enhancement (SNE)” value is on record?
The value was 9.

With `CCCCNc1ncc2c(-c3ccc(CN4CCN(C)CC4)cc3)cn([C@H]3CC[C@H](O)CC3)c2n1` [(1r,4r)-4-[2-(butylamino)-5-{4-[(4-methylpiperazin-1-yl)methyl]phenyl}-7H-pyrrolo[2,3-d]pyrimidin-7-yl]cyclohexan-1-ol] as the compound, how does the “signal-to-noise enhancement (SNE)” value read?
Its value is 22.

Which “signal-to-noise enhancement (SNE)” value does the source give for `N[C@H]1Cc2ccccc2N(O)C1=O` [(3S)-3-amino-1-hydroxy-1,2,3,4-tetrahydroquinolin-2-one] here?
The value was 7.

For `Cc1c/c(=N/c2ccc(C)c(C)c2)n2ncnc2[nH]1` [(7Z)-N-(3,4-dimethylphenyl)-5-methyl-4H,7H-[1,2,4]triazolo[1,5-a]pyrimidin-7-imine], which “signal-to-noise enhancement (SNE)” value is on record?
Its value is 7.

Which “signal-to-noise enhancement (SNE)” value does the source give for `OC[C@H]1O[C@@H](n2cnc3c2NC=NC[C@H]3O)C[C@@H]1O` [(8R)-3-[(2R,4S,5R)-4-hydroxy-5-(hydroxymethyl)oxolan-2-yl]-3H,4H,7H,8H-imidazo[4,5-d][1,3]diazepin-8-ol] here?
The value was 104.

With `C[C@@H]1COCCN1c1cc(C2([S@](C)(=N)=O)CC2)nc(-c2ccnc3[nH]ccc23)n1` [(R)-imino(methyl)(1-{6-[(3R)-3-methylmorpholin-4-yl]-2-{1H-pyrrolo[2,3-b]pyridin-4-yl}pyrimidin-4-yl}cyclopropyl)-λ^6-sulfanone] as the compound, how does the “signal-to-noise enhancement (SNE)” value read?
The value was 19.

For `COC(=O)N1CCN(c2ccc(F)cc2)CC1` [Methyl 4-(4-fluorophenyl)-1-piperazinecarboxylate], which “signal-to-noise enhancement (SNE)” value is on record?
Its value is 40.

Which “signal-to-noise enhancement (SNE)” value does the source give for `CC(=O)Nc1ccc2[nH]ncc2c1` [N-(1H-indazol-5-yl)acetamide] here?
Its value is 18.

With `CC(C)Nc1nc2ccccc2[nH]1` [N-(propan-2-yl)-1H-1,3-benzodiazol-2-amine] as the compound, how does the “signal-to-noise enhancement (SNE)” value read?
The value was 31.

With `CN1CCOC(CNc2nccs2)C1` (stereo not shown) [N-[(4-Methyl-2-morpholinyl)methyl]-1,3-thiazol-2-amine] as the compound, how does the “signal-to-noise enhancement (SNE)” value read?
Its value is 100.

For `CCNCc1cccc2[nH]ccc12` [ethyl[(1H-indol-4-yl)methyl]amine], which “signal-to-noise enhancement (SNE)” value is on record?
Its value is 25.

Same assay, conditions: photosensitizer methylene blue 75 μM, ligand 100 μM, 638 nm, 2 s irradiation, 600 MHz, phosphate buffer pH 7.0

Which “signal-to-noise enhancement (SNE)” value does the source give for `NCCc1ccc(O)cc1` [4-(2-aminoethyl)phenol] here?
The value was 16.

Same assay, conditions: photosensitizer thionine 75 μM, ligand 100 μM, 638 nm, 2 s irradiation, 600 MHz, phosphate buffer pH 7.0

For `CCOc1ccccc1N1CCNCC1` [1-(2-ethoxyphenyl)piperazine], which “signal-to-noise enhancement (SNE)” value is on record?
The value was 10.

For `NC(=O)c1ccc2c(c1)CCN2` [2,3-dihydro-1H-indole-5-carboxamide], which “signal-to-noise enhancement (SNE)” value is on record?
Its value is 9.

Which “signal-to-noise enhancement (SNE)” value does the source give for `NCCc1c[nH]c2ccccc12` [2-(1H-indol-3-yl)ethan-1-amine] here?
The value was 15.

Which “signal-to-noise enhancement (SNE)” value does the source give for `c1csc(-c2ncc[nH]2)c1` [2-(thiophen-2-yl)-1H-imidazole] here?
The value was 9.

For `NCCc1ccc(O)cc1` [4-(2-aminoethyl)phenol], which “signal-to-noise enhancement (SNE)” value is on record?
Its value is 17.

Which “signal-to-noise enhancement (SNE)” value does the source give for `CN(C)C(=O)c1ccc2c(c1)CCCN2` [N,N-dimethyl-1,2,3,4-tetrahydroquinoline-6-carboxamide] here?
Its value is 10.

With `c1ccc(CCNc2nc3ccccc3[nH]2)cc1` [N-(2-phenylethyl)-1H-benzimidazol-2-amine] as the compound, how does the “signal-to-noise enhancement (SNE)” value read?
Its value is 8.

For `COCC(=O)Nc1ccc(O)cc1` [N-(4-hydroxyphenyl)-2-methoxyacetamide], which “signal-to-noise enhancement (SNE)” value is on record?
The value was 9.

For `CC(C)Nc1nc2ccccc2[nH]1` [N-(propan-2-yl)-1H-1,3-benzodiazol-2-amine], which “signal-to-noise enhancement (SNE)” value is on record?
Its value is 7.
